For orientation: inhibition means how much of the control response was suppressed. By melting point is commonly meant the temperature of the solid-liquid transition.

These results are taken from patent publication US8796244B2, “Imidazopyridine derivatives as inhibitors of receptor tyrosine kinases” (Astex Therapeutics Ltd, priority 2008, dated 2014).

Data set [1] relates to parental wild-type Ba/F3 cells. Put plainly: Ba/F3 (WT) cell proliferation assay (Alamar Blue). The class given is cell-based. The settings on record: Mus musculus, BaF3, read-out: BaF3 WT prolif, % inhibition. In general terms: Resazurin is reduced to fluorescent resorufin, in cell work by metabolically active cells.

For the compound `O=C(NCC(F)(F)F)Nc1cccc(-c2cnc3cc(-c4nnc(CCO)s4)ccn23)c1` [Compound 263], the melting point turned out to be 230 °C. Moreover, the inhibition at 1 µM in data set [1] was 21%.
